{"source": "paper PMC8860381", "about": "(Molecular Cell, 2022)", "system": "hSKI complex WT (hSKI2-hSKI3-hSKI8, two hSKI8 copies) (Homo sapiens)", "assay": "cryo-EM structure", "settings": "ADP-BeF, closed state, 6 nt (N1-N6) resolved in hSKI2 helicase core; hSKI storage buffer 20 mM Hepes pH 7.5, 100 mM NaCl; recombinant protein", "data": [{"sequence": "UUUUUUUUUUUUUUUUUUUUUUUUU [25U RNA]", "values": [{"measurement": "binding result", "value": "binds"}]}]}
